These results are taken from publication doi:10.1101/2025.07.12.664526 (bioRxiv, 2025).

Results are given in words; binding and its absence hold for the method and conditions named. Binding seen in cells or lysates may run through a third protein. Where a sequence is shown, tags or fusion partners need not be part of it.

The target in this assay is WalR D53A/T101A fused to SmBIT or LgBIT (split luciferase) (S. aureus ATCC29213) (UniProt Q7A8E1). Description: split reporter.

B1: WalR D53A/T101A fused to SmBIT or LgBIT (split luciferase) (protein, UniProt Q7A8E1 1-233)
chain: MARKVVVVDDEKPIADILEFNLKKEGYDVYCAYDGNDAVDLIYEEEPDIVLLAIMLPGRDGMEVCREVRKKYEMPIIMLTAKDSEIDKVLGLELGADDYVAKPFSTRELIARVKANLRRHYSQPAQDTGNVTNEITIKDIVIYPDAYSIKKRGEDIELTHREFELFHYLSKHMGQVMTREHLLQTVWGYDYFGDVRTVDVTIRRLREKIEDDPSHPEYIVTRRGVGYFLQQHE
As for B1, the binding entry is “no binding”.
